The supplement of paper PMC8728848
The other results are listed elsewhere or left out.

Assays:
Assay in all cases: glycan array binding signal (z-score within array); higher = stronger binding
Conditions in all cases: glycan notation: IUPAC condensed, linker removed
[1] = target: Man(a1-2)Man(a1-3)[Man(a1-2)Man(a1-6)]Man(a1-6)[Man(a1-2)Man(a1-2)Man(a1-3)]Man
In short: (§1)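 Arrays were curated from the Consortium for Functional Glycomics database, 3228 in total, and kept only where the protein sequence was available. Binding is expressed as a within-array Z-score. This score was averaged across arrays of the same protein sequence at different concentrations or buffers and across linkers, and negative values can be read as non-binding.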

[2] = target: Man(a1-2)Man(a1-3)[Man(a1-2)Man(a1-6)]Man(a1-6)[Man(a1-2)Man(a1-2)Man(a1-3)]Man(b1-4)GlcNAc(b1-4)GlcNAc
In short: as §1

[3] = target: Man(a1-2)Man(a1-3)[Man(a1-6)]Man(a1-6)[Man(a1-2)Man(a1-3)]Man(b1-4)GlcNAc(b1-4)GlcNAc
In short: as §1

[4] = target: Man(a1-2)Man(a1-6)[Man(a1-3)]Man(a1-6)[Man(a1-2)Man(a1-2)Man(a1-3)]Man
In short: as §1

[5] = target: Man(a1-2)Man(a1-6)[Man(a1-3)]Man(a1-6)[Man(a1-2)Man(a1-2)Man(a1-3)]Man(b1-4)GlcNAc(b1-4)GlcNAc
In short: as §1

Man(a1-3)[Man(a1-6)]Man = target: Man(a1-3)[Man(a1-6)]Man
In short: as §1

[6] = target: Man(a1-3)[Man(a1-6)]Man(a1-6)[Man(a1-2)Man(a1-3)]Man(b1-4)GlcNAc(b1-4)GlcNAc
In short: as §1

[7] = target: Man(a1-3)[Man(a1-6)]Man(a1-6)[Man(a1-3)]Man
In short: as §1

[8] = target: Man(a1-3)[Man(a1-6)]Man(a1-6)[Man(a1-3)]Man(b1-4)GlcNAc(b1-4)GlcNAc
In short: as §1

[9] = target: Man(a1-3)[Man(a1-6)]Man(b1-4)GlcNAc(b1-4)GlcNAc
In short: as §1

[10] = target: Man(a1-3)[Man(a1-6)]Man(b1-4)GlcNAc(b1-4)[Fuc(a1-6)]GlcNAc
In short: as §1

Man(a1-6)Man = target: Man(a1-6)Man
In short: as §1

Man(b1-4)GlcNAc = target: Man(b1-4)GlcNAc
In short: as §1

MurNAc(b1-4)GlcNAc = target: MurNAc(b1-4)GlcNAc
In short: as §1

Neu5Ac(a2-3)Gal = target: Neu5Ac(a2-3)Gal
In short: as §1

[11] = target: Neu5Ac(a2-3)Gal(b1-3)GalNAc
In short: as §1

[12] = target: Neu5Ac(a2-3)Gal(b1-3)GalNAc(b1-3)Gal(a1-4)Gal(b1-4)Glc
In short: as §1

[13] = target: Neu5Ac(a2-3)Gal(b1-3)GalNAc(b1-4)[Neu5Ac(a2-3)]Gal(b1-4)Glc
In short: as §1

[14] = target: Neu5Ac(a2-3)Gal(b1-3)GalNAc(b1-4)[Neu5Ac(a2-8)Neu5Ac(a2-3)]Gal(b1-4)Glc
In short: as §1

[15] = target: Neu5Ac(a2-3)Gal(b1-3)GalNAc6S
In short: as §1

[16] = target: Neu5Ac(a2-3)Gal(b1-3)GlcNAc
In short: as §1

[17] = target: Neu5Ac(a2-3)Gal(b1-3)GlcNAc(b1-2)Man
In short: as §1

[18] = target: Neu5Ac(a2-3)Gal(b1-3)GlcNAc(b1-2)Man(a1-3)[GlcNAc(b1-4)][Neu5Ac(a2-3)Gal(b1-3)GlcNAc(b1-2)Man(a1-6)]Man(b1-4)GlcNAc(b1-4)GlcNAc
In short: as §1

[19] = target: Neu5Ac(a2-3)Gal(b1-3)GlcNAc(b1-2)Man(a1-3)[Neu5Ac(a2-3)Gal(b1-3)GlcNAc(b1-2)Man(a1-6)]Man(b1-4)GlcNAc(b1-4)GlcNAc
In short: as §1

[20] = target: Neu5Ac(a2-3)Gal(b1-3)GlcNAc(b1-3)Gal(b1-3)GlcNAc
In short: as §1

[21] = target: Neu5Ac(a2-3)Gal(b1-3)GlcNAc(b1-3)Gal(b1-4)GlcNAc
In short: as §1

[22] = target: Neu5Ac(a2-3)Gal(b1-3)GlcNAc(b1-3)GalNAc
In short: as §1

[23] = target: Neu5Ac(a2-3)Gal(b1-3)GlcNAc(b1-4)Gal(b1-4)Glc
In short: as §1

[24] = target: Neu5Ac(a2-3)Gal(b1-3)GlcNAc(b1-6)GalNAc
In short: as §1

[25] = target: Neu5Ac(a2-3)Gal(b1-3)GlcNAc6S
In short: as §1

[26] = target: Neu5Ac(a2-3)Gal(b1-3)[Fuc(a1-4)]GlcNAc
In short: as §1

[27] = target: Neu5Ac(a2-3)Gal(b1-3)[Fuc(a1-4)]GlcNAc(b1-3)Gal(b1-3)[Fuc(a1-4)]GlcNAc
In short: as §1

[28] = target: Neu5Ac(a2-3)Gal(b1-3)[Fuc(a1-4)]GlcNAc(b1-3)Gal(b1-4)[Fuc(a1-3)]GlcNAc
In short: as §1

[29] = target: Neu5Ac(a2-3)Gal(b1-3)[GlcNAc(b1-6)]GalNAc
In short: as §1

[30] = target: Neu5Ac(a2-3)Gal(b1-3)[Neu5Ac(a2-6)]GalNAc
In short: as §1

[31] = target: Neu5Ac(a2-3)Gal(b1-3)[Neu5Ac(a2-6)]GlcNAc(b1-3)[Fuc(a1-3)[Gal(b1-4)]GlcNAc(b1-6)]Gal(b1-4)Glc
In short: as §1

[32] = target: Neu5Ac(a2-3)Gal(b1-3)]Neu5Ac(a2-3)Gal(b1-4)]GlcNAc
In short: as §1

Neu5Ac(a2-3)Gal(b1-4)Glc = target: Neu5Ac(a2-3)Gal(b1-4)Glc
In short: as §1

B1: FimA-N2 (Actinomyces oris) (protein)
chain: MHHHHHHSSGVDLGTENLYFQSNAWIYDVNVYPKNEAIDVDKTIQAQKLNGYGVGSLIKFPVESTAPTLDAKSFYKYFQLKDTLDERLSEVTATDVSLEGTPLQPTDYKVETKQQTVTVTFTAEGLKKIKAAPGKKVSAVFQGKVTKAGNGAITNRAQVISDTLYAEQPPTPETPPTDPENPPTSDEVISRWGDLSIKKVDTHQQGQTKA
In the case of B1, the “glycan array binding signal (z-score)” value [1] is reported as -1.05, the “glycan array binding signal (z-score)” value [2] is reported as 0.192 and the “glycan array binding signal (z-score)” value [3] is reported as 0.741. For the same binder, the “glycan array binding signal (z-score)” value [4] was -1.28, the “glycan array binding signal (z-score)” value [5] was -1.42 and the “glycan array binding signal (z-score)” value (Man(a1-3)[Man(a1-6)]Man) was 0.03. For the same binder, the “glycan array binding signal (z-score)” value [6] was -1.46, the “glycan array binding signal (z-score)” value [7] was -0.183 and the “glycan array binding signal (z-score)” value [8] was -0.486. For the same binder, the “glycan array binding signal (z-score)” value [9] was -0.508, the “glycan array binding signal (z-score)” value [10] was -0.081 and the “glycan array binding signal (z-score)” value (Man(a1-6)Man) was 1.37. The “glycan array binding signal (z-score)” value (Man(b1-4)GlcNAc) was -0.714, the “glycan array binding signal (z-score)” value (MurNAc(b1-4)GlcNAc) was 0.202 and the “glycan array binding signal (z-score)” value (Neu5Ac(a2-3)Gal) was 0.301. For the same binder, the “glycan array binding signal (z-score)” value [11] was 0.048, the “glycan array binding signal (z-score)” value [12] was 1.41 and the “glycan array binding signal (z-score)” value [13] was -1.08. The “glycan array binding signal (z-score)” value [14] was 1.03, the “glycan array binding signal (z-score)” value [15] was -0.925 and the “glycan array binding signal (z-score)” value [16] was -0.447. The “glycan array binding signal (z-score)” value [17] was -1.08, the “glycan array binding signal (z-score)” value [18] was 1.31 and the “glycan array binding signal (z-score)” value [19] was 0.44. The “glycan array binding signal (z-score)” value [20] was 0.582, the “glycan array binding signal (z-score)” value [21] was -0.399 and the “glycan array binding signal (z-score)” value [22] was -1.53. The “glycan array binding signal (z-score)” value [23] was -0.951, the “glycan array binding signal (z-score)” value [24] was -0.182 and the “glycan array binding signal (z-score)” value [25] was -0.206. The “glycan array binding signal (z-score)” value [26] was -0.119, the “glycan array binding signal (z-score)” value [27] was 1.81 and the “glycan array binding signal (z-score)” value [28] was 0.678. For the same binder, the “glycan array binding signal (z-score)” value [29] was -0.637, the “glycan array binding signal (z-score)” value [30] was -0.67 and the “glycan array binding signal (z-score)” value [31] was -1.4. The “glycan array binding signal (z-score)” value [32] was 0.27 and the “glycan array binding signal (z-score)” value (Neu5Ac(a2-3)Gal(b1-4)Glc) was -0.144.
